# From the supplement of paper PMC12067093, “Discovery and optimisation of a covalent ligand for TRIM25 and its application to targeted protein ubiquitination” (Chemical Science, 2025)
# The chains behind the UniProt entries cited, without tags or fusion partners. Where a name states a change or a piece, a line headed by the entry shows the natural chain unless it says otherwise.
# UniProt Q14643, whole entry, looked up: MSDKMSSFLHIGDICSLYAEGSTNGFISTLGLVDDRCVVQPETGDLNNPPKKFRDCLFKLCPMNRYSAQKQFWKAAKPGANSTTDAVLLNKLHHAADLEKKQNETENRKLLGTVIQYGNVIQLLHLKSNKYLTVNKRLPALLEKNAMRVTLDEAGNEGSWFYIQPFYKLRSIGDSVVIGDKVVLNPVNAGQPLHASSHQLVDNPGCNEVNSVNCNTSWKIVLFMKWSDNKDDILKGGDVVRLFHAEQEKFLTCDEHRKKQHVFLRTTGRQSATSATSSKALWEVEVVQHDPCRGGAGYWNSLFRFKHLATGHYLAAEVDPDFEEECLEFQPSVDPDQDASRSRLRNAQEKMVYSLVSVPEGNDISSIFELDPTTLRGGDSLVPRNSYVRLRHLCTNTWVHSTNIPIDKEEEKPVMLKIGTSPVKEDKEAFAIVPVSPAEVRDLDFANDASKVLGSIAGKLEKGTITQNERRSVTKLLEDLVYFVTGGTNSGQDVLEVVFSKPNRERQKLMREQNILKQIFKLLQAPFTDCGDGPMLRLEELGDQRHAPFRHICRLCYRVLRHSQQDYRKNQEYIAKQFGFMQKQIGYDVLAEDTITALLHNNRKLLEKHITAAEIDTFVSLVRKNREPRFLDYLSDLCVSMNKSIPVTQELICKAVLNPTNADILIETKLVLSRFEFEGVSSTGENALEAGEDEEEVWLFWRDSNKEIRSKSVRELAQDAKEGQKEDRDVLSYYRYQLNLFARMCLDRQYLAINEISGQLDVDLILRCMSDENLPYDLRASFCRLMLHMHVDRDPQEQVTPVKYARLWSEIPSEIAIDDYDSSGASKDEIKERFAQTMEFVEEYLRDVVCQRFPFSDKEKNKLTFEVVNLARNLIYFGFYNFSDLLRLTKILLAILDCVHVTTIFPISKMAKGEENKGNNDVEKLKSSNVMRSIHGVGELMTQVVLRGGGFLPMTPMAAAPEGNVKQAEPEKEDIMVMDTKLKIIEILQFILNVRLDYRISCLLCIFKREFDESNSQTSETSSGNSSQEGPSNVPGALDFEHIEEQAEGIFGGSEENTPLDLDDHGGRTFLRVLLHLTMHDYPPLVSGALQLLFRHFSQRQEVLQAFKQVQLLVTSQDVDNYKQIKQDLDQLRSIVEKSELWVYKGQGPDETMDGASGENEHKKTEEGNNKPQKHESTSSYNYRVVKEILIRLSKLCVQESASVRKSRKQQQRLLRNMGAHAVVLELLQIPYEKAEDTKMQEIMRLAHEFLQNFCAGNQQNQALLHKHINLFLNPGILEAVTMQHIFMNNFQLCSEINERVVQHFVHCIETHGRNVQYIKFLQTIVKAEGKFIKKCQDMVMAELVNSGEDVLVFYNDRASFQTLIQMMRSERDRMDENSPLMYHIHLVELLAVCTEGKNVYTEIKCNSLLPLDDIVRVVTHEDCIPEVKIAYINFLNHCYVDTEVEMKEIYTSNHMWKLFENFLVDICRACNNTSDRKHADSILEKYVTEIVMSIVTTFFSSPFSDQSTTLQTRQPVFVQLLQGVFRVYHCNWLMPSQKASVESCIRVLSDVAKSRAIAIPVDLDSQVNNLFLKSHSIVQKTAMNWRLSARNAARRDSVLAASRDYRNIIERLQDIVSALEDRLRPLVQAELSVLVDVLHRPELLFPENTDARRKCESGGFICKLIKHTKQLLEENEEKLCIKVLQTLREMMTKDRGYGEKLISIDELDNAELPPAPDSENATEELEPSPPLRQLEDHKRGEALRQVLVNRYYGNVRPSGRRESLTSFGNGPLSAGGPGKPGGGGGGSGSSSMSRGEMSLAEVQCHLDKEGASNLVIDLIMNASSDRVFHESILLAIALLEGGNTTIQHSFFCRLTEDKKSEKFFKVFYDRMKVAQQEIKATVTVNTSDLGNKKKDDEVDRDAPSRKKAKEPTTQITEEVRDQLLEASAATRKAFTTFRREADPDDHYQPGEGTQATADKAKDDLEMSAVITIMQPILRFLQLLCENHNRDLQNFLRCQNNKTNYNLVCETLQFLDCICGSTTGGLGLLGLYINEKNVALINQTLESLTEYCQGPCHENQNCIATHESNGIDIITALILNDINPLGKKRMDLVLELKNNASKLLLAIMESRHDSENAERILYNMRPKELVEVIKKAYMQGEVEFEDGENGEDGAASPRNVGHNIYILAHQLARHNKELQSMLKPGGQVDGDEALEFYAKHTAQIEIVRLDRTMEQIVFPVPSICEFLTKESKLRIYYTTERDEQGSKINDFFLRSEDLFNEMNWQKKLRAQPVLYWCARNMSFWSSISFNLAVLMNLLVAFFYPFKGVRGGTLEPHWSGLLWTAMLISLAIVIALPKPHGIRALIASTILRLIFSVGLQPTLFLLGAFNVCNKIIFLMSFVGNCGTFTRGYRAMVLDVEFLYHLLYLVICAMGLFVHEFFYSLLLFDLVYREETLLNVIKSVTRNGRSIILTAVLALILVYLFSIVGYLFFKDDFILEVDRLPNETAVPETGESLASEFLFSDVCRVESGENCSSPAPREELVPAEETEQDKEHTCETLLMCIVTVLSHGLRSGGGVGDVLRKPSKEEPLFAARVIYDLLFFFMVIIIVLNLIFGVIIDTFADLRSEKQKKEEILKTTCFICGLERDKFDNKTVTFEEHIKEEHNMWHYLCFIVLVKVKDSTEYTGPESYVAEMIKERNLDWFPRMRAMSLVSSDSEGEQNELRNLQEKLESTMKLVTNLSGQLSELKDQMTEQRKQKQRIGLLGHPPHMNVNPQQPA
# UniProt O94819: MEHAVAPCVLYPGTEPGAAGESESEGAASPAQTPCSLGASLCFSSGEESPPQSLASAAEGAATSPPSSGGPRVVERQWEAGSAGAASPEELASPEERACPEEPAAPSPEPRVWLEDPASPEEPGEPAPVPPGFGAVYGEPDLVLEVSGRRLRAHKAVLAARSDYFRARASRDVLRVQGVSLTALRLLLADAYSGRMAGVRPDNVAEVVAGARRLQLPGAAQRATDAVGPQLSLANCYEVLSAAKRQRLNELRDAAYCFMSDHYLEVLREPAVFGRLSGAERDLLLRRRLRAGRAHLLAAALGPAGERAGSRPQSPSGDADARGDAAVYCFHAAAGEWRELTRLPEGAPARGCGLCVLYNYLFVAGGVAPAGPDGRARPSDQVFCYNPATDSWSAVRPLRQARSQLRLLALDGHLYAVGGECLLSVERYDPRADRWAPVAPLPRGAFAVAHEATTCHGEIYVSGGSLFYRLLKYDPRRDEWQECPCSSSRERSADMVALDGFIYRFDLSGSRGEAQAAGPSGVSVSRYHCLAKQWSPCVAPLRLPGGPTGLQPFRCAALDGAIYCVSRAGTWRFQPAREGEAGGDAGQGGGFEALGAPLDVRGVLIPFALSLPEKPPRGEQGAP
# UniProt P26440: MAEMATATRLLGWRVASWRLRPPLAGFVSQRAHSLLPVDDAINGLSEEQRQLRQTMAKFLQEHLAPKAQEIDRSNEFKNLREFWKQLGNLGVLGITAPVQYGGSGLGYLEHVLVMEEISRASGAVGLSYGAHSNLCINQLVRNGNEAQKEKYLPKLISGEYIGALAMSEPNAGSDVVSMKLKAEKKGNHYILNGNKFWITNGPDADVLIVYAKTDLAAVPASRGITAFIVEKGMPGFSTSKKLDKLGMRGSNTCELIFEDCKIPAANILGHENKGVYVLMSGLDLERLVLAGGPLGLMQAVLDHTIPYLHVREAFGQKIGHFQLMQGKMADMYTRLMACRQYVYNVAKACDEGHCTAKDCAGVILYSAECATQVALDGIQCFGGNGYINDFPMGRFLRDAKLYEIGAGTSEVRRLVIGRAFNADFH
# UniProt Q9H079: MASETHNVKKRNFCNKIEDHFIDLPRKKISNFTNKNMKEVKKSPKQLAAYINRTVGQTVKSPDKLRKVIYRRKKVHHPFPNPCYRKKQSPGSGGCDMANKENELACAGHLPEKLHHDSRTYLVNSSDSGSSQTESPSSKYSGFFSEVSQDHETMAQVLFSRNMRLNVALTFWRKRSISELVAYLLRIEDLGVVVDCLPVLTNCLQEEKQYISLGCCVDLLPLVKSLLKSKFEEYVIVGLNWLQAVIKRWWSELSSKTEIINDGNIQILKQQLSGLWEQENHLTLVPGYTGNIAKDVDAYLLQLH
# UniProt Q96Q89: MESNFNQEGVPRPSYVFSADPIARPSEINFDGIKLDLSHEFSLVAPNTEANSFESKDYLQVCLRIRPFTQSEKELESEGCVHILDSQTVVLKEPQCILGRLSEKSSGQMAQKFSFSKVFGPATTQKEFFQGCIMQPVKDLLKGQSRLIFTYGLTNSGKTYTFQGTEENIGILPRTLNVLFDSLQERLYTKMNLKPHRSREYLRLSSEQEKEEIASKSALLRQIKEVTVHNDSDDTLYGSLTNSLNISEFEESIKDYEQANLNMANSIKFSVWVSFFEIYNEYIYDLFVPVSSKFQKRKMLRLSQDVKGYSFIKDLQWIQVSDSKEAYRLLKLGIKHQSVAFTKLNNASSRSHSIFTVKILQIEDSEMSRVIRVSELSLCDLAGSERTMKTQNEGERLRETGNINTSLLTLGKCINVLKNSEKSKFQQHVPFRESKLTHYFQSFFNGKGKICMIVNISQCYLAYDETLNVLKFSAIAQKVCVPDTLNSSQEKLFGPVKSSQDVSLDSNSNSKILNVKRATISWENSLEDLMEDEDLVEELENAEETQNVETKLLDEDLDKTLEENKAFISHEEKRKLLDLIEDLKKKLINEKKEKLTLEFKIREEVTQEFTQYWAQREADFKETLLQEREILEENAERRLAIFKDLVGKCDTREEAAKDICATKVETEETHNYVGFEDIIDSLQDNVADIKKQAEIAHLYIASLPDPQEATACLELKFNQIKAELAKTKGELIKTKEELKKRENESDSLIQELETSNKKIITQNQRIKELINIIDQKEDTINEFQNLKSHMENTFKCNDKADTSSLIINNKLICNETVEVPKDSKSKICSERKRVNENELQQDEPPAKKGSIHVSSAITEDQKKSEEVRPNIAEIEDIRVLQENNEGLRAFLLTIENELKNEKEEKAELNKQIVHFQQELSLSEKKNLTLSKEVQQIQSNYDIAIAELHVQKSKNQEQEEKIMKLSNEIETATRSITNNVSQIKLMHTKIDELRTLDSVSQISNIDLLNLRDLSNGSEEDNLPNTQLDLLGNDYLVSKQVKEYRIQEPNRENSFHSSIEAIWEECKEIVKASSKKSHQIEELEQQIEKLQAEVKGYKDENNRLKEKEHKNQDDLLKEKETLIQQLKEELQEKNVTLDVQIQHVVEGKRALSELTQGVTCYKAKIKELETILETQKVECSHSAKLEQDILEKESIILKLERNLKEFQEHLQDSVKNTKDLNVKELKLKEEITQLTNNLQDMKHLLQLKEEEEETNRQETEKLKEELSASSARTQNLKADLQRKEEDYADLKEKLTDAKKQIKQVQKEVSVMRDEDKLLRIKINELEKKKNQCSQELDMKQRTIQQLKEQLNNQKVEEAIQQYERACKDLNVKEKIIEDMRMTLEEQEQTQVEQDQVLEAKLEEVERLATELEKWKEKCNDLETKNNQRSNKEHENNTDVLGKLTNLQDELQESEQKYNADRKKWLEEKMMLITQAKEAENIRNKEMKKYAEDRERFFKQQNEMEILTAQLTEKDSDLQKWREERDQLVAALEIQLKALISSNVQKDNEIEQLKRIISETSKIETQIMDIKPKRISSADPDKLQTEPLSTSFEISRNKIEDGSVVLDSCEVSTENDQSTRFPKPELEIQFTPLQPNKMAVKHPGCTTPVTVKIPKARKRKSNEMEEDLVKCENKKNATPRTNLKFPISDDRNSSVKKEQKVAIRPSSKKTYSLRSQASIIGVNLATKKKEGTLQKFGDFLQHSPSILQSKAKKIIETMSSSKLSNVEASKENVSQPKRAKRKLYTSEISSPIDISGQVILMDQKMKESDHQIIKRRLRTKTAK
# UniProt Q9Y6Y0: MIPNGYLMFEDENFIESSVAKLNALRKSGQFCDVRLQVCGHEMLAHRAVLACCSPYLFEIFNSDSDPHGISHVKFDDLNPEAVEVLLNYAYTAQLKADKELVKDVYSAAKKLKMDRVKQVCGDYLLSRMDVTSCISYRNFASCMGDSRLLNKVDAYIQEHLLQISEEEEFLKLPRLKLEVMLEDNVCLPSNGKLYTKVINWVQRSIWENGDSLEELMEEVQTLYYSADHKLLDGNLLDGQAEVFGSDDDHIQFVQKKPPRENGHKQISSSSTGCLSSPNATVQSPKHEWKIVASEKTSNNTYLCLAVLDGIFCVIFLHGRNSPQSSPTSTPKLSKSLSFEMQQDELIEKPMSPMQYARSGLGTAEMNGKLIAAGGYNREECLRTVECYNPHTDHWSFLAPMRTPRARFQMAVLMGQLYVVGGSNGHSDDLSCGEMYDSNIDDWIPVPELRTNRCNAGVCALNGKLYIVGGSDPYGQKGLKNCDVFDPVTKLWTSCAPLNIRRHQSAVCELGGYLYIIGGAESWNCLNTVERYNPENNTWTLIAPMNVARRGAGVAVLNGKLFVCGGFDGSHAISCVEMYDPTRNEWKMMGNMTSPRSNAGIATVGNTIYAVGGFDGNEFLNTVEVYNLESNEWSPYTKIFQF
# The list shows a part of the results.
# Compound: Cc1cc(ccc1-c1ccccc1)C(=O)N1CCCN(CC1)C(=O)CCl [compound 10]
# Test: probe-labelled cysteine peptide fold change vs DMSO (competition) (log2 fold change); higher = less target engagement (more negative = stronger competition)
# Details: THP-1, incubation time: 4 h
# 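Further: competitive profiling in live THP-1 cells: cysteine peptides tagged with an iodoacetamide desthiobiotin (IA-DTB) probe, intensity after compound treatment relative to DMSO-treated cells.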
target,measurement,setting,value
ITPR1_Q14643_1197_LCVQESASVR (UniProt Q14643),probe-labelled cysteine peptide fold change,10 µM,0.236
same,probe-labelled cysteine peptide fold change,50 µM,0.11
KHDC4_Q7Z7F0_280_GSGCIEPASGR (UniProt Q7Z7F0),probe-labelled cysteine peptide fold change,10 µM,0.0612
same,probe-labelled cysteine peptide fold change,50 µM,-0.00392
KBTBD11_O94819_329_GDAAVYCFHAAAGEWR (UniProt O94819),probe-labelled cysteine peptide fold change,10 µM,0.258
same,probe-labelled cysteine peptide fold change,50 µM,0.188
KDELC1_Q6UW63_491+493_VEPQTEDDLFPCTCHR (UniProt Q6UW63),probe-labelled cysteine peptide fold change,10 µM,-0.399
same,probe-labelled cysteine peptide fold change,50 µM,0.5
JUP_P14923_457_AGDKDDITEPAVCALR (UniProt P14923),probe-labelled cysteine peptide fold change,10 µM,-0.117
same,probe-labelled cysteine peptide fold change,50 µM,0.0142
ITPR1_Q14643_1424_VVTHEDCIPEVK (UniProt Q14643),probe-labelled cysteine peptide fold change,10 µM,0.131
same,probe-labelled cysteine peptide fold change,50 µM,0.146
KIF13B_Q9NQT8_773_ECEEDNPVIR (UniProt Q9NQT8),probe-labelled cysteine peptide fold change,10 µM,-0.138
same,probe-labelled cysteine peptide fold change,50 µM,0.165
IVD_P26440_261_GSNTCELIFEDCK (UniProt P26440),probe-labelled cysteine peptide fold change,10 µM,0.0481
same,probe-labelled cysteine peptide fold change,50 µM,0.468
KATNBL1_Q9H079_106_ENELACAGHLPEK (UniProt Q9H079),probe-labelled cysteine peptide fold change,10 µM,-0.285
same,probe-labelled cysteine peptide fold change,50 µM,-0.337
KIF20B_Q96Q89_1330_NQCSQELDMK (UniProt Q96Q89),probe-labelled cysteine peptide fold change,10 µM,0.173
same,probe-labelled cysteine peptide fold change,50 µM,-0.21
KDM3B_Q7LBC6_1392_LLCLHDPSNK (UniProt Q7LBC6),probe-labelled cysteine peptide fold change,10 µM,0.278
same,probe-labelled cysteine peptide fold change,50 µM,0.0431
IVNS1ABP_Q9Y6Y0_495_LWTSCAPLNIR (UniProt Q9Y6Y0),probe-labelled cysteine peptide fold change,10 µM,0.117
same,probe-labelled cysteine peptide fold change,50 µM,-0.21
KANK1_Q14678_1292_LLLAQPGCNGHLEDNDGSTALSIALEAGHK (UniProt Q14678),probe-labelled cysteine peptide fold change,10 µM,0.314
same,probe-labelled cysteine peptide fold change,50 µM,0.546
KDM5B_Q9UGL1_1072_ECAVNTFLTENSPYSLLEVLCPR (UniProt Q9UGL1),probe-labelled cysteine peptide fold change,10 µM,0.544
same,probe-labelled cysteine peptide fold change,50 µM,0.17

# 2 entries drawn at random from the list so far, as already listed:
target,measurement,setting,value
IVD_P26440_261_GSNTCELIFEDCK (UniProt P26440),probe-labelled cysteine peptide fold change,10 µM,0.0481
KBTBD11_O94819_329_GDAAVYCFHAAAGEWR (UniProt O94819),probe-labelled cysteine peptide fold change,50 µM,0.188
